These results are taken from the supplement of paper PMC9135407.

This assay has as its system primary human hepatic stellate cells (donor 1). Description: percent Bodipy-positive cells; higher = more lipid droplet accumulation. As to conditions: 48 h.
The mark [1] stands for this setting: library stock concentration: 10 mM.
Where [2] appears, read: library stock concentration: 3.33 mM.
[3] abbreviates: library stock concentration: 1 mM.
[4] abbreviates: library stock concentration: 5.9 mM.

“And” between values parts separate entries of the source, which are not always exact repeats. Equal values may be shown once. Where a name gives a salt, the structure may show the parent alone. ± gives the standard deviation of the averaged measurements. The list shows a part of the results. Part of the spread comes from offsets between plates or batches.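 Culture-activated primary human stellate myofibroblasts, where regained lipid droplets signal inactivation. Value: share of Hoechst-counted cells above a per-plate Bodipy cutoff, in duplicate wells, with DMSO negative and nortriptyline positive controls on each plate. Hits: a control-normalized score above the plate's top-tenth-percentile nortriptyline wells, or one of a plate's three best wells. Final well concentrations are not given.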

For the compound `CC(=O)O[C@H]1C[C@@H]2CC[C@@H]3[C@H](CC[C@@]4(C)[C@H]3C[C@H]([N+]3(C)CCCCC3)[C@@H]4OC(C)=O)[C@@]2(C)C[C@@H]1[N+]1(C)CCCCC1` [Pancuronium bromide], the “percent Bodipy-positive cells” value amounted to 10.7 ± 1.1%. Moreover, the “percent Bodipy-positive cells” value under setting [1] came out at 22.2 ± 4.2%.

In the case of `CC(=O)O[C@H]1C[C@@H]2CC[C@@H]3[C@H](CC[C@@]4(C)[C@H]3C[C@H]([N+]3(C)CCCCC3)[C@@H]4OC(C)=O)[C@@]2(C)C[C@@H]1[N+]1(C)CCCCC1` [Pancuronium], the “percent Bodipy-positive cells” value under setting [1] is 12.7 ± 5.4%.

As for `C[C@]12CCC(=O)C[C@@H]1CC[C@@H]1[C@@H]2CC[C@]2(C)C(=O)CC[C@@H]12` [5alpha-androstan-3,17-dione], the “percent Bodipy-positive cells” value under setting [1] is 36.1 ± 5.4%. Consider `O=C1C=CC[C@@H]2[C@H]3CCCN4CCC[C@@H](CN12)[C@@H]34` [Sophocarpine], for which the “percent Bodipy-positive cells” value was 8.25 ± 3.6% under setting [2] and 13.2 ± 4.3% under setting [1]. Consider `CCCCC/C=C\C/C=C\C/C=C\C/C=C\CCCC(=O)Nc1cccc([N+](=O)[O-])c1` [Arachidonoyl m-Nitroaniline], for which the “percent Bodipy-positive cells” value under setting [3] stood at 22.3 ± 16%. Take `CC(N)Cc1c[nH]c2ccc(OCc3cccs3)cc12.Cl` (stereo unspecified): the “percent Bodipy-positive cells” value under setting [1] came out at 97.5 ± 0.13%. Consider `CC(N)Cc1cnc[nH]1` (stereo unspecified), for which the “percent Bodipy-positive cells” value under setting [1] was found to be 6.07 ± 0.25%. On the same count and under the same terms, to `O=C1Nc2ccccc2C2(CCN(CCc3ccc(C(F)(F)F)cc3)CC2)O1` belongs 43.2 ± 6.2%; to `NC(CCCCCP(=O)(O)O)C(=O)O` (stereo unspecified) [(?)-2-Amino-7-phosphonoheptanoic acid], 41.2 ± 9%. On to `O=C(NCC1CCOCC1)c1cnc(Nc2ccc(Cl)cc2Cl)nc1C(F)(F)F`, for which the “percent Bodipy-positive cells” value was 12.1 ± 4.6% under setting [2] and 31.8 ± 23% under setting [1]. With `CN1CCc2cccc(Cl)c2CC1`, under setting [1], the “percent Bodipy-positive cells” value was found to be 22 ± 3.1%. On to `COc1c2c(cc3c1OCO3)CCN(C)C2` [Hydrocotarnine hydrobromide], for which the “percent Bodipy-positive cells” value came out at 41.4 ± 21%. Consider `COC(=O)[C@@H](N)CCCNC(=N)N[N+](=O)[O-]` [L-NAME (hydrochloride)], for which the “percent Bodipy-positive cells” value under setting [3] is 8.48 ± 0.21%. `COC(=O)[C@@H](N)CCCNC(=N)N[N+](=O)[O-]` [L-NAME hydrochloride]: the “percent Bodipy-positive cells” value under setting [1] was found to be 7.14 ± 1.7%. In the case of `COC(=O)[C@@H](N)CCCNC(=N)N[N+](=O)[O-]` [NG-Nitro-L-arginine methyl ester hydrochloride], the “percent Bodipy-positive cells” value under setting [1] worked out at 29.2 ± 1.4%. Consider `COC(=O)[C@@H](N)CCCNC(=N)N[N+](=O)[O-]`, for which the “percent Bodipy-positive cells” value (library stock concentration: 21.4 mM) stood at 16 ± 7.5%. As to `Cn1c(CCCC(=O)O)nc2cc(N(CCCl)CCCl)ccc21` [Bendamustine HCl], the “percent Bodipy-positive cells” value is 10.1 ± 0.47% under setting [2] and 13.2 ± 1.1% under setting [1].

For `Cn1c(CCCC(=O)O)nc2cc(N(CCCl)CCCl)ccc21` [Bendamustine hydrochloride], the “percent Bodipy-positive cells” value under setting [1] came to 64.9 ± 3.3%. `CN1CCc2cc(O)cc3c2[C@H]1Cc1ccc(O)c(O)c1-3` [R(-)-2,10,11-Trihydroxyaporphine hybrobromide]: the “percent Bodipy-positive cells” value under setting [1] was 38.4 ± 5.7%.

As for `NC(CP(=O)(O)O)C(=O)O` (stereo unspecified), the “percent Bodipy-positive cells” value under setting [1] came to 32.5 ± 2.9%. Consider `CN[C@@H]1[C@@H](O)[C@@H](O[C@@H]2[C@@H](O)[C@H](O[C@H]3O[C@H](CN)CC[C@H]3N)[C@@H](N)C[C@H]2N)OC[C@]1(C)O.CN[C@@H]1[C@@H](O)[C@@H](O[C@@H]2[C@@H](O)[C@H](O[C@H]3O[C@H]([C@@H](C)N)CC[C@H]3N)[C@@H](N)C[C@H]2N)OC[C@]1(C)O.CN[C@@H]1[C@@H](O)[C@@H](O[C@@H]2[C@@H](O)[C@H](O[C@H]3O[C@H]([C@@H](C)NC)CC[C@H]3N)[C@@H](N)C[C@H]2N)OC[C@]1(C)O` [Gentamicin sulfate], for which the “percent Bodipy-positive cells” value runs as follows: (library stock concentration: 3.5 mM) 2.51 ± 1.3%; under setting [1], 17.1 ± 0.86%. Turning to `CN[C@@H]1[C@@H](O)[C@@H](O[C@@H]2[C@@H](O)[C@H](O[C@H]3O[C@H](CN)CC[C@H]3N)[C@@H](N)C[C@H]2N)OC[C@]1(C)O.CN[C@@H]1[C@@H](O)[C@@H](O[C@@H]2[C@@H](O)[C@H](O[C@H]3O[C@H]([C@@H](C)N)CC[C@H]3N)[C@@H](N)C[C@H]2N)OC[C@]1(C)O.CN[C@@H]1[C@@H](O)[C@@H](O[C@@H]2[C@@H](O)[C@H](O[C@H]3O[C@H]([C@@H](C)NC)CC[C@H]3N)[C@@H](N)C[C@H]2N)OC[C@]1(C)O` [Gentamicine sulfate], the “percent Bodipy-positive cells” value was found to be 30.9 ± 5.9%. For the compound `CN1CCN(C(=O)O[C@H]2c3nccnc3C(=O)N2c2ccc(Cl)cn2)CC1` [Eszopiclone], the “percent Bodipy-positive cells” value under setting [1] amounted to 20.6 ± 8.3%. As to `CN1CCN(C(=O)O[C@H]2c3nccnc3C(=O)N2c2ccc(Cl)cn2)CC1`, the “percent Bodipy-positive cells” value under setting [1] is 44.1 ± 5.3%. As to `O=C1Nc2ccc(Cl)cc2C(c2ccccc2Cl)=NC1O` (stereo unspecified) [Lorazepam], the “percent Bodipy-positive cells” value under setting [1] turned out to be 10.2 ± 2.4%. On to `O=C1CC[C@@]2(O)[C@H]3Cc4ccc(O)c5c4[C@@]2(CCN3CC2CC2)[C@H]1O5` [Naltrexone hydrochloride dihydrate], for which the “percent Bodipy-positive cells” value is 24.5 ± 2.3%. Turning to `O=C1CC[C@@]2(O)[C@H]3Cc4ccc(O)c5c4[C@@]2(CCN3CC2CC2)[C@H]1O5` [Naltrexone hydrochloride], the “percent Bodipy-positive cells” value under setting [4] was determined as 8.81 ± 0.31%; the “percent Bodipy-positive cells” value under setting [1] is 39.1% and 47.3%. As for `O=C1CC[C@@]2(O)[C@H]3Cc4ccc(O)c5c4[C@@]2(CCN3CC2CC2)[C@H]1O5` [Naltrexone HCl], the “percent Bodipy-positive cells” value reads like this: under setting [2], 24 ± 5.7%; under setting [4], 8.91 ± 3.7%; under setting [1], 7.54 ± 0.71%. On to `COc1ccc2c(c1O)-c1c(OC)c(OC)cc3c1[C@H](C2)N(C)CC3` [Isocorydine (+)], for which the “percent Bodipy-positive cells” value was found to be 33.3 ± 0.73%.

Consider `COc1ccc2c(c1O)-c1c(OC)c(OC)cc3c1[C@H](C2)N(C)CC3` [S-isocorydine (+)], for which the “percent Bodipy-positive cells” value under setting [1] is 39.9 ± 21%. With `NC(=O)c1cc([N+](=O)[O-])cc([N+](=O)[O-])c1` [Nitromide], the “percent Bodipy-positive cells” value is, setting by setting: (library stock concentration: 9.5 mM) 4.12 ± 1.2%; under setting [1], 15 ± 2.8%. With `CCOC(=O)CC(SP(=S)(OC)OC)C(=O)OCC` (stereo unspecified), the “percent Bodipy-positive cells” value under setting [1] amounted to 31.5 ± 3.1%.
